Measurements: the supplement of paper PMC5949888
Most values lie at the floor of the assay. Slopes are relative: functional sequences can read slightly below zero.

tested on: Saccharomyces cerevisiae PS128 hsf1 delta, HSF1(1-493) fusion; assay: growth estimate (transactivation domain function in HSF1 fusion, heat-shock survival) (a.u. (slope of normalised read count over time)); higher = stronger growth at 37°C, i.e. more transactivation activity; conditions: library: random library

Row | Substance | growth estimate
1 | GCAYGQYRGMSAHTSVKGGI | < -0.25
2 | QLRYNVSTNGVIVIRKKVTH | < -0.25
3 | QTQFMR | < -0.25
4 | LYHRTCVRSDRWQIAGCYWS | < -0.25
5 | GLGYLRRGGMIAKPRPPWRL | < -0.25
6 | GMSRPFPK | < -0.25
7 | TWGVPVNRRRSAFSRLATTI | < -0.25
8 | FRHIIAERAI | < -0.25
9 | GLQQGLMPYKKKR | < -0.25
10 | HWTNSFLYSGLVIQADPLF | < -0.25
11 | GEGLVRQRMHVY | < -0.25
12 | FWCVFRARGDHKVACSLTPK | < -0.25
13 | ATPLTAWGGRVGFYTLTLKS | < -0.25
14 | VLIGLDCESYLPKCPDRKGI | < -0.25
15 | STTGAVAPGVMNDVILQQPI | < -0.25
16 | PVVHSEMKWGCGRAACLSVS | < -0.25
17 | STLEALPMTADAGMPTLARD | < -0.25
18 | RVRDVKQLALLTSGDECHPD | < -0.25
19 | ALVCSMHLLRGGPLRWGPS | < -0.25
20 | WLVEGSAR | < -0.25
21 | AHVEAGAFVVGASKICYLAP | < -0.25
22 | GDHEHLVNAEEVEIYPMSLV | < -0.25
23 | TRGRL | < -0.25
24 | ILINVSGLSHTANSLLP | -0.25
25 | SGRCVRGSIHRPHFRDVVGG | < -0.25

Row | Substance | growth estimate
26 | SHTLASICCCRAGPPIGRLQ | < -0.25
27 | YHDN | < -0.25
28 | PGGLALRTLVERDCPVTGLM | < -0.25
29 | STCVDFAPSSDFLHCPGSFA | < -0.25
30 | ITSQSNINRFMLIHFTH | < -0.25
31 | FVSHLAWSH | < -0.25
32 | GLTLDGFTVSSLKSRSSTS | < -0.25
33 | IIQWLCVPTVGMYVAITDNR | -0.246
34 | NHRSALKRRVD | < -0.25
35 | HKAQFI | < -0.25
36 | LHSSSRN | < -0.25
37 | PTRCGPGALVSTRRLVA | < -0.25
38 | CSLRGEKIG | < -0.25
39 | RLMADAKKTGRLPGRAIYLL | < -0.25
40 | PRRGRLKGLIMVNLTLLGVH | < -0.25
41 | FRLDPRRLRGYYRPLAVGRH | < -0.25
42 | GVNERTARKQQVGRNSPRRS | < -0.25
43 | RNFVRSGHDSVDRGRNRVRG | < -0.25
44 | LSIAGIPG | < -0.25
45 | VSHT | < -0.25
46 | EDIMVAIGQTGSCWALYEIG | < -0.25
47 | HVGYELTRKWLSWSRRHT | < -0.25
48 | DSLKSE | < -0.25
49 | TQYKRMTAGFLGSRSCYTQQ | < -0.25
50 | ACVEAW | < -0.25

Row | Substance | growth estimate
51 | GFNIANMADTK | < -0.25
52 | TEMILGQGGLIWGDPSEHGM | -0.219
53 | ARLKVYINVAGEKEGAGLCW | < -0.25
54 | PTWYNPQYVV | < -0.25
55 | VINMP | < -0.25
56 | PAVTIGGSHRSL | < -0.25
57 | PNESRRYRVRPAELPIFMIL | < -0.25
58 | VPDCAYYYYKYM | < -0.25
59 | AVTECFLTNMGCNRAV | < -0.25
60 | LVTVKHVSGTESTLHCDIGQ | < -0.25
61 | AVVEFPSHRC | < -0.25
62 | SASATYSKRSD | < -0.25
63 | NSFARTDKTLVAQLFDGSKL | < -0.25
64 | IEVNGLGRTSRGRTITVDWP | < -0.25
65 | AFKV | -0.243
66 | ARRRVLWRAAELKWCAFAFV | < -0.25
67 | FIAGIMPCTTRGRCRFTYAL | < -0.25
68 | LRPPIRRASRHSH | < -0.25
69 | TSNYKGYWYEHRPVLRFAGQ | < -0.25
70 | QGRLRSRECILAVFPETNCG | < -0.25
71 | FPLHRESERDPAAWWARLST | < -0.25
72 | RIRYRMITDESRVRLSKVE | < -0.25
73 | RTPIWKQRLRFGQDWDN | < -0.25
74 | SRSQLFGITKVYLDDV | -0.239
75 | CTQGGVSGHRRGRQAVFTTS | < -0.25

Another view of part of the listing above:

| Row | Substance | growth estimate |
| --- | --- | --- |
| 63 | NSFARTDKTLVAQLFDGSKL | < -0.25 |
| 69 | TSNYKGYWYEHRPVLRFAGQ | < -0.25 |
| 72 | RIRYRMITDESRVRLSKVE | < -0.25 |

Remaining list, next part:

Row | Substance | growth estimate
76 | RGKSLSRLSWLGFTVVHGAL | < -0.25
77 | HSRGAVQALPDLPRQGRNGG | < -0.25
78 | CRFRWQLAANVRRKVQWYV | < -0.25
79 | LCNVVCRKYARMLVLASRLN | < -0.25
80 | YGAVPPHTTVQWRVTKEGRW | < -0.25
81 | DNRVNATCSASWSPTAYHLH | < -0.25
82 | HAIRPSTLGGCLIPYIIPPV | < -0.25
83 | TLGYRHVGA | < -0.25
84 | TVAVLMIKVRSHGPTV | < -0.25
85 | LMKLPRSRR | < -0.25
86 | QPGG | < -0.25
87 | RAIGSLRGGGLPKLEDTSNS | < -0.25
88 | SGLPLAWPVKYNVLHECPAV | < -0.25
89 | RCLLLRHNCSQGDLGY | < -0.25
90 | TSARYRIQTGRFSAVCIRLR | < -0.25
91 | LYLTLRTQKPFISAEARSAG | < -0.25
92 | VIGSP | < -0.25
93 | PEPCVVSSPKIGSRCKTSPR | < -0.25
94 | DVT | < -0.25
95 | RLLLLLRPERGSLGVM | < -0.25
96 | VVAHLP | < -0.25
97 | ATKACGGSRFPTRIKAREAS | < -0.25
98 | GNLRAEMRRHAGGREEVTGR | < -0.25
99 | GNILRYC | < -0.25
100 | RGMGSQSG | < -0.25

Row | Substance | growth estimate
101 | PGVKALLCCTIPAAHVRRA | < -0.25
102 | QPD | < -0.25
103 | GATGGMITA | < -0.25
104 | SDMGPK | < -0.25
105 | VETLCRRQS | < -0.25
106 | IDKTRAGVDRC | < -0.25
107 | IRSCGYSLLASPVALGARFA | < -0.25
108 | KGESYYASV | < -0.25
109 | STPGLCLCIRD | -0.246
110 | WRCGFWMGGRGVPKEDAPSR | < -0.25
111 | VVCVSPCV | < -0.25
112 | LHSGG | < -0.25
113 | RGVRRTCTFSCDQRRYLFRW | < -0.25
114 | VSRAEGALMRILQDSN | < -0.25
115 | THRLTK | < -0.25
116 | SARWRAKRPLLLHLRIPVAN | < -0.25
117 | VSHTRA | < -0.25
118 | DYTDGQIEGGHTPCVRLGSK | < -0.25
119 | TTGRSLVRATFVSS | < -0.25
120 | PARRTINASIADRKLASGFL | < -0.25
121 | HAARDTTWASSV | < -0.25
122 | RVSKGVIIGRRLILLSIQTS | < -0.25
123 | NAAYCSAQRPFDARYQWDEV | < -0.25
124 | CAYLR | < -0.25
125 | CKALLAKP | < -0.25

Row | Substance | growth estimate
126 | DQPVRVSLRCRPYSTSCKRG | < -0.25
127 | SSPLRRMNVALLMFLPACLN | < -0.25
128 | TGCPRFRAGRTLTSLWTFIF | < -0.25
129 | ARLEIVSCLISAQVTHWAIT | < -0.25
130 | KSCVLRVSCAASVGKKSS | -0.246
131 | YGWSGCIL | < -0.25
132 | WPKSLPEGSRNSTSVCI | < -0.25
133 | TGIGAYKGPCNAVNVRNGVT | < -0.25
134 | RYSQLGSIVEGAGDDALILG | < -0.25
135 | QSLVYSQRFLYRAVFNHE | < -0.25
136 | PRLDGGGISLYNIVWGAQAW | < -0.25
137 | CRSGTSVPD | < -0.25
138 | LGR | < -0.25
139 | HRGQSPTLEVIYTSPTAGDR | < -0.25
140 | AHPSASRTCQVLRNDATAWR | < -0.25
141 | CKRGHLYLLGVGRGHLVRQF | < -0.25
142 | REKLDRGLVADTKARLL | < -0.25
143 | SSPGNMF | < -0.25
144 | VTFVGRILNRPSFT | < -0.25
145 | RSNEFECGLLEYCNACDICR | < -0.25
146 | CTGIVGRVL | < -0.25
147 | LQVGEPG | < -0.25
148 | QYLGGHSPVRLPFRRTALLL | < -0.25
149 | CALLNYHPK | < -0.25
150 | IIPKLNNVEVREYRRFLGSL | -0.241

Individual results from the entries so far:
Entry for HRGQSPTLEVIYTSPTAGDR under growth estimate: < -0.25
Entry for CRSGTSVPD under growth estimate: < -0.25

Next part

Row | Substance | growth estimate
151 | YAKHAVTKPLCSP | < -0.25
152 | KGWTYVLCYGPG | < -0.25
153 | FSSRKFALLQNN | < -0.25
154 | TEPVRLGLLRGRTSNRQSEK | < -0.25
155 | SPDPGGVPRRLASHYLVHAP | < -0.25
156 | CRGFDGKRMTDVPVWVLLRK | < -0.25
157 | CALWRV | < -0.25
158 | GGMLGAGTAFETLLAQARED | 0.379
159 | KCGCGGNISCYFP | < -0.25
160 | QRSPCQG | < -0.25
161 | VRPRQSTGIRGCGRPSFSVL | < -0.25
162 | GRTEVCSDPRFAMHPVVGME | -0.246
163 | IAGHSRRIDYSHIRIRWTVP | < -0.25
164 | TISFLTGRD | < -0.25
165 | QIIGQALFGEEV | < -0.25
166 | LKRLH | < -0.25
167 | GYGEAWKGRREGARYI | < -0.25
168 | PPTAAAGLLRLSRFTNGLGL | < -0.25
169 | GVADQQVQRAALTPPKDVSV | < -0.25
170 | GEGKLID | < -0.25
171 | YSSTT | < -0.25
172 | AGLRSHLLLVPKCCQLNTSA | < -0.25
173 | GRMVGRLADYYLLQLR | < -0.25
174 | DYAVNPRSRKVGSRR | < -0.25
175 | TGIVCIVLEDATVSIRRRAP | < -0.25

Already shown: entries from further up.
Row | Substance | growth estimate
165 | QIIGQALFGEEV | < -0.25
166 | LKRLH | < -0.25
167 | GYGEAWKGRREGARYI | < -0.25

Carrying on.

Row | Substance | growth estimate
176 | SHARTYQVHLRALH | < -0.25
177 | AAVRLKHGTI | < -0.25
178 | TRKLGSEFGFD | < -0.25
179 | FDYMRSELQN | < -0.25
180 | SLELGCGDLTALSIIPAGCR | < -0.25
181 | VLVQDAVPFYPSGSAKVLA | < -0.25
182 | VDQRKSPKV | < -0.25
183 | SFQAMSPVTCRGDDLPGLKV | < -0.25
184 | RSSQRLKSR | < -0.25
185 | VRILHGTAHARVRQTLAECA | -0.163
186 | SKPLLRMGDERATFDEPVAD | < -0.25
187 | CIETSGGVGVMDCRNEDYGG | < -0.25
188 | DIVQVIVLGLLYE | < -0.25
189 | CVVNLFTVVRAGFGMPGLGL | < -0.25
190 | PLSDLWTTRAGTRIVVTPPP | < -0.25
191 | IGGRIHRVVVSLVTLHLAYH | < -0.25
192 | RRIYYPDNREMPRVILATLP | < -0.25
193 | RVEVVTESAF | < -0.25
194 | SGLEFG | < -0.25
195 | LLIFLSGLHSNSA | < -0.25
196 | GKVVAD | < -0.25
